PubChem BioAssay AID1259424 – University of Nebraska Medical Center | 2018
Here is one part, drawn at random, of about 14,000 deposited reagents. 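Higher correlation or smaller distance means closer resemblance to KSR1 loss; control wells, including KSR1 knockdowns, recur on many plates.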 Not all columns of the deposit are shown. No sequences are given here. Not given: the time to read-out.

Aim: 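Find knockdowns that reproduce the expression shifts seen after KSR1 loss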 (primary screen)
System: human HCT116 colon cancer cells
Reagent: siRNA pool against human genes, 50 nM
Read-out: 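Six signature mRNAs by branched-DNA multiplex assay, scaled to two housekeeping genes and non-targeting median, log2; matched to mean KSR1 knockdown profile by Pearson correlation and euclidean distance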
Direction: mean correlation with KSR1 profile and KSR1 correlation: higher = expression change more like KSR1 knockdown; mean distance from KSR1 profile: higher = expression change less like KSR1 knockdown

target gene,mean correlation with KSR1 profile,mean distance from KSR1 profile,"KSR1 correlation, replicate 1","KSR1 correlation, replicate 2"
ASXL3,0.15,2.79,0.0994,0.0536
PKIA,0.61,2.26,0.711,0.63
LIPT1,-0.358,2.11,-0.136,-0.33
ALOX15B,0.512,1.54,0.517,0.545
MMAB,-0.589,2.71,-0.885,-0.721
LHPP,-0.0901,3.19,-0.135,-0.0647
DHX30,-0.815,2.11,-0.563,-0.914
GOLM1,-0.357,6.13,-0.348,0.252
TXK,0.742,1.52,0.833,0.855
DPEP2,0.204,2.38,0.193,0.504
MUC1,-0.214,4.37,0.00722,-0.239
PSD,-0.549,1.75,-0.455,-0.372
SLC16A2,-0.345,1.91,-0.333,-0.491
CRY1,0.918,0.655,0.592,0.909
FN3KRP,0.643,2.12,0.79,0.467
CPED1,0.221,1.55,0.309,0.508
ARNT2,-0.0779,1.85,0.0142,0.161
CCDC85B,-0.255,1.36,-0.278,-0.173
SQLE,-0.355,2.2,-0.364,-0.422
NNMT,-0.0746,4.35,0.0702,-0.159
FASLG,0.182,2.28,0.189,0.168
PID1,-0.433,1.93,-0.256,-0.273
HPGDS,-0.566,2.77,-0.648,-0.592
KCNN2,-0.0897,1.37,-0.399,0.485
DDN,-0.122,2.2,-0.0296,-0.377
HASPIN,0.336,2.64,0.434,0.419
CD82,-0.38,2.25,-0.416,-0.3
FBLN2,0.222,2.06,0.0602,0.248
SDHB,-0.599,2.31,-0.562,-0.703
SYT17,-0.358,1.99,-0.119,-0.697
ZBED4,0.201,1.85,0.469,0.0619
WDR48,-0.191,1.87,-0.287,-0.193
RGS17,0.00814,2.21,0.0937,-0.168
CTRL,0.199,1.64,0.331,0.446
ZKSCAN5,-0.564,2.6,-0.477,-0.284
ATP5MG,-0.322,2.11,-0.13,-0.503
CPSF4,-0.671,1.41,-0.555,-0.539
COL4A6,0.00647,1.3,0.29,-0.226
SLC38A4,-0.0779,2.23,-0.105,-0.093
DGCR6L,-0.229,4.17,-0.403,-0.038
SUPT4H1,0.48,3.67,0.494,0.508
S100P,0.231,4.38,0.207,0.019
DSPP,0.287,2.93,0.307,0.268
UBE2D1,-0.296,1.61,-0.338,-0.416
MKNK1,0.648,0.895,0.52,0.895
H3C4,-0.31,1.69,-0.561,-0.69
IL13,0.0746,1.11,-0.406,0.28
DFFA,-0.336,3,-0.377,-0.44
POLR2C,0.655,2,0.91,0.537
COBL,-0.522,3.87,-0.379,-0.588

8 entries already listed, ordered by “KSR1 correlation, replicate 1”, low to high.
target gene,mean correlation with KSR1 profile,mean distance from KSR1 profile,"KSR1 correlation, replicate 1","KSR1 correlation, replicate 2"
SDHB,-0.599,2.31,-0.562,-0.703
CD82,-0.38,2.25,-0.416,-0.3
KCNN2,-0.0897,1.37,-0.399,0.485
SYT17,-0.358,1.99,-0.119,-0.697
DDN,-0.122,2.2,-0.0296,-0.377
FBLN2,0.222,2.06,0.0602,0.248
HASPIN,0.336,2.64,0.434,0.419
ZBED4,0.201,1.85,0.469,0.0619
